This is an account of results in the supplement of paper PMC4749390.

Where a name gives a salt, the structure may show the parent alone. Some of the results follow. This data set is noisy: repeats of one test often differ as much as different tests do.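 JEG3 cells stably carry tetracycline-induced wild-type human LRH-1, a heavily sumoylated nuclear receptor. APOC3 and MUC1 are SUMO-sensitive transcripts, raised by SUMO-less LRH-1 or UBC9 knockdown, measured by RT-qPCR against TBP and DMSO controls. A robust Z-score above +2 or below -2 marked a primary hit before toxicity and TBP filtering.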

The test relates to JEG3 expressing hLRH-1. Nature of the test: MUC1 transcript change (ddCt vs TBP and DMSO), Z-score over library; higher = higher MUC1 expression. The conditions noted are these: 10 µM; time (hr): 24.
In the case of `C[C@@H]1C[C@H]2[C@@H]3CCC4=CC(=O)C=C[C@]4(C)[C@@]3(Cl)[C@@H](O)C[C@]2(C)[C@@]1(OC(=O)c1ccco1)C(=O)CCl` [mometasone furoate], the “MUC1 transcript change (Z-score)” value is 0.0887. For `C/C=C(/C)C(=O)O[C@@H]1[C@H](OC(C)=O)[C@@]2(CO)C(CC1(C)C)C1=CCC3[C@@]4(C)CC[C@H](O[C@@H]5O[C@H](C(=O)O)[C@@H](O[C@@H]6O[C@H](CO)[C@@H](O)[C@H](O)[C@H]6O)[C@H](O)[C@H]5O[C@@H]5O[C@H](CO)[C@@H](O)[C@H](O)[C@H]5O)[C@](C)(CO)C4CC[C@@]3(C)[C@]1(C)C[C@H]2O` (stereo partly drawn) [beta-escin], the “MUC1 transcript change (Z-score)” value was -0.815. Regarding `CCC(C)CCCCC(=O)NC(CCN)C(=O)NC(C(=O)NC(CCN)C(=O)NC1CCNC(=O)C(C(C)O)NC(=O)C(CCN)NC(=O)C(CCN)NC(=O)C(CC(C)C)NC(=O)C(Cc2ccccc2)NC(=O)C(CCN)NC1=O)C(C)O` (stereo not given) [polymyxin b sulfate], the “MUC1 transcript change (Z-score)” value came out at 1.09. In the case of `CN(C)CCOc1ccc(/C(=C(/CCCl)c2ccccc2)c2ccccc2)cc1` [toremiphene citrate] it was 0.666; in that of `Oc1cccc(O)c1` [resorcinol], 0.44. With `CC[C@H]1OC(=O)[C@H](C)[C@@H](O[C@H]2C[C@@](C)(OC)[C@@H](O)[C@H](C)O2)[C@H](C)[C@@H](O[C@@H]2O[C@H](C)C[C@H](N(C)C)[C@H]2O)[C@](C)(O)C[C@@H](C)CN(C)[C@H](C)[C@@H](O)[C@]1(C)O` [azithromycin], the “MUC1 transcript change (Z-score)” value is 0.585.

For `Cc1cc(O)cc(C)c1Cl` [chloroxylenol], the “MUC1 transcript change (Z-score)” value was 0.122. For `Cc1cccc(Nc2ccncc2S(=O)(=O)NC(=O)NC(C)C)c1` [torsemide], the “MUC1 transcript change (Z-score)” value turned out to be 0.567. Consider `O=C(NC(Cc1cc(O)nc2ccccc12)C(=O)O)c1ccc(Cl)cc1` (stereo not given) [rebamipide], for which the “MUC1 transcript change (Z-score)” value is -0.372. Under `CCOC(=O)CC(=O)N1CCSC1COc1ccccc1OC` (stereo not given) [moguisteine] stands -1.51; under `CC(N)CCCC(C)(C)O` (stereo not given) [heptaminol hydrochloride], -0.0384; under `CN(C)CCCN1c2ccccc2Sc2ccccc21` [promazine hydrochloride], -0.765. Consider `C1N2CN3CN1CN(C2)C3` [methenamine], for which the “MUC1 transcript change (Z-score)” value amounted to 1.14.

`CC(=O)Oc1c(C)c(C)c2c(c1C)CCC(C)(CCCC(C)CCCC(C)CCCC(C)C)O2` (stereo not drawn) [alpha-tochopheryl acetate]: the “MUC1 transcript change (Z-score)” value worked out at 0.302. Consider `CC1(C)O[C@@H]2CC3C4C[C@H](F)C5=CC(=O)C=CC5(C)C4C(O)CC3(C)[C@]2(C(=O)CO)O1` (stereo not given in full) [flunisolide], for which the “MUC1 transcript change (Z-score)” value is -1.49. For `CCOC(=S)SSC(=S)OCC` [dixanthogen], the “MUC1 transcript change (Z-score)” value was -0.0693. With `Clc1ccc(C(Cn2ccnc2)OCc2ccsc2Cl)c(Cl)c1` (stereo not given) [tioconazole], the “MUC1 transcript change (Z-score)” value was determined as 0.0237. Take `CC[C@]1(O)C[C@H]2CN(CCc3c([nH]c4ccccc34)[C@@](C(=O)OC)(c3cc4c(cc3OC)N(C)[C@H]3[C@@](O)(C(=O)OC)[C@H](OC(C)=O)[C@]5(CC)C=CCN6CC[C@]43[C@@H]65)C2)C1` [vinblastine sulfate]: the “MUC1 transcript change (Z-score)” value is 0.0864.

Take `CC(C)(Oc1ccc(C2CC2(Cl)Cl)cc1)C(=O)O` (stereo not given) [ciprofibrate]: the “MUC1 transcript change (Z-score)” value came out at 0.604. `Nc1ccc(S(=O)(=O)Nc2nccs2)cc1` [sulfathiazole]: the “MUC1 transcript change (Z-score)” value is 0.375. For the compound `NS(=O)(=O)c1cc2c(cc1Cl)NCNS2(=O)=O` [Hydrochlorothiazide], the “MUC1 transcript change (Z-score)” value was 0.78. As to `O=C1OC(c2ccc(O)cc2)(c2ccc(O)cc2)c2ccccc21` [phenolphthalein], the “MUC1 transcript change (Z-score)” value was 0.183. With `Cc1ccccc1C(OCCN(C)C)c1ccccc1` (stereo not given) [orphenadrine citrate], the “MUC1 transcript change (Z-score)” value is 0.39. As for `Cc1cc(C2CCCCC2)n(O)c(=O)c1` [ciclopirox olamine], the “MUC1 transcript change (Z-score)” value came out at 7.13. As for `NC(=O)c1cnccn1` [pyrazinamide], the “MUC1 transcript change (Z-score)” value is -1.26. On to `OCCOCCN1CCN(C(c2ccccc2)c2ccc(Cl)cc2)CC1` (stereo not given) [hydroxyzine pamoate], for which the “MUC1 transcript change (Z-score)” value amounted to 0.00491. On to `O=C1c2cccc(O)c2C(=O)c2c(O)cccc21` [dantron], for which the “MUC1 transcript change (Z-score)” value came to 0.252. In the case of `Cc1cc2nc3c(=O)[nH]c(=O)nc-3n(C[C@@H](O)[C@@H](O)[C@@H](O)COP(=O)(O)O)c2cc1C` [riboflavin 5-phosphate sodium], the “MUC1 transcript change (Z-score)” value was 0.573.

As for `CN1CCCC(n2nc(Cc3ccc(Cl)cc3)c3ccccc3c2=O)CC1` (stereo not given) [azelastine hydrochloride], the “MUC1 transcript change (Z-score)” value is -0.249. As to `Nc1ccc(S(N)(=O)=O)cc1` [sulfanilamide], the “MUC1 transcript change (Z-score)” value worked out at 0.205. Under `C[C@]12CCC(=O)C=C1[C@@H]1C[C@@H]1[C@H]1[C@@H]3[C@@H]4C[C@@H]4[C@@]4(CCC(=O)O4)[C@@]3(C)CC[C@@H]12` [drospirenone] stands 0.431; under `C[N+](C)(C)CC(O)CC(=O)O` (stereo not given) [carnitine hydrochloride], 0.764; under `CCCOc1ccc(C(=O)OCCN(CC)CC)cc1N` [proparacaine hydrochloride], -0.884.

`O=C(CCCN1CC=C(n2c(O)nc3ccccc32)CC1)c1ccc(F)cc1` [droperidol]: the “MUC1 transcript change (Z-score)” value turned out to be 0.161. Take `Clc1ccc(CSC(Cn2ccnc2)c2ccc(Cl)cc2Cl)cc1` (stereo not given) [sulconazole nitrate]: the “MUC1 transcript change (Z-score)” value is -0.0721. On to `CC(Oc1ccccc1)C(=O)N[C@@H]1C(=O)N2[C@@H]1SC(C)(C)[C@@H]2C(=O)O` (stereo not given in full) [phenethicillin potassium], for which the “MUC1 transcript change (Z-score)” value was -0.269. As to `Cc1ccc(S(=O)(=O)NCl)cc1` [chloramine-t], the “MUC1 transcript change (Z-score)” value is -0.318. `CC1(C)S[C@@H]2[C@H](NC(=O)[C@H](N)c3ccccc3)C(=O)N2[C@H]1C(=O)O` [ampicillin sodium]: the “MUC1 transcript change (Z-score)” value stood at 1.2. Take `c1ccc(CC2=NCCN2)cc1` [tolazoline hydrochloride]: the “MUC1 transcript change (Z-score)” value came out at 0.491. With `CC(=O)NCCCCCC(=O)O` [acexamic acid], the “MUC1 transcript change (Z-score)” value is -0.418. In the case of `COc1cc([C@@H]2c3cc4c(cc3C(O[C@@H]3O[C@@H]5CO[C@@H](c6cccs6)OC5[C@H](O)[C@H]3O)C3COC(=O)[C@@H]32)OCO4)cc(OC)c1O` (stereo not given in full) [teniposide] it was 0.854; in that of `O=C(O)c1cccnc1Nc1cccc(C(F)(F)F)c1` [niflumic acid], 0.899. In the case of `CCNC(=O)/C=C/c1cccc(Br)c1` [cinromide] it was 0.549; in that of `CC1CC(OC(=O)C(O)c2ccccc2)CC(C)(C)C1` (stereo not given) [cyclandelate], -0.7.

Take `Nc1nc(O)c2nc(CNc3ccc(C(=O)N[C@@H](CCC(=O)O)C(=O)O)cc3)cnc2n1` [folic acid]: the “MUC1 transcript change (Z-score)” value is -0.162.
